Values from PubChem BioAssay AID686938 (Drosophila RNAi Screening Center, 2013).
The screen tested about 23,000 reagents; this is an unselected part of those with a known target gene and a result. Over the whole deposit, 75 (0.33%) got an active call. 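Raw plate signals without normalisation; calls rest on plate z-scores that were not deposited; ratio present for only 364 wells.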 Reagent sequences are not shown. The record does not give: the dose of the treatment.

Purpose: 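Knock-downs reducing store-operated calcium influx in Drosophila cells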 (primary screen)
Cells: Drosophila S2R+ cells
Reagents: long dsRNA against Drosophila genes, about 0.25 µg dsRNA per well, roughly 10,000 cells
Duration: 5 days of knock-down before the calcium assay
Challenge: thapsigargin (SERCA pump blocker) to empty calcium stores; entry signal taken 4 min after adding it
Read-out: 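Duplicate raw fluo-4 intensities per well from a plate reader, at rest and four minutes after thapsigargin emptied calcium stores; entry-to-rest ratio filled for only some wells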
Reading the numbers: calcium entry signal: higher = stronger calcium signal after store depletion; entry to resting ratio: higher = more calcium entry relative to resting level; resting calcium signal: higher = higher resting calcium signal
Call rule: 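Called when the plate z-score of the entry-to-rest ratio, mean of duplicates, falls below −3; wells with low overall dye signal (Fmax z below −2) or more than five off-targets excluded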
Calls: active = strongly reduced calcium entry; inactive = no strong reduction

| target gene | DRSC id | calcium entry signal, replicate 1 (fluorescence units) | calcium entry signal, replicate 2 (fluorescence units) | entry to resting ratio | resting calcium signal, replicate 1 (fluorescence units) | resting calcium signal, replicate 2 (fluorescence units) | Outcome |
| --- | --- | --- | --- | --- | --- | --- | --- |
| CG12171 | DRSC12200 | 4.42e7 | 2.98e7 | – | 2.11e7 | 1.49e7 | inactive |
| Zip102B | DRSC17155 | 4.56e7 | 3.21e7 | 2 | 2.32e7 | 1.59e7 | inactive |
| TpnC47D | DRSC07564 | 2.81e7 | 3.93e7 | – | 1.41e7 | 1.66e7 | inactive |
| Marf1 | DRSC03747 | 5.55e7 | 5.07e7 | – | 2.79e7 | 2.09e7 | inactive |
| Marf1 | DRSC03774 | 3.64e7 | 6.96e7 | – | 1.65e7 | 2.69e7 | inactive |
| Ir75c | DRSC10190 | 3.89e7 | 5.29e7 | – | 1.95e7 | 2.26e7 | inactive |
| Nepl17 | DRSC14880 | 3.98e7 | 6.22e7 | – | 2.05e7 | 2.69e7 | inactive |
| Ktch | DRSC15094 | 4.45e7 | 5.62e7 | – | 2.23e7 | 2.57e7 | inactive |
| simj | DRSC10942 | 3.00e7 | 1.88e7 | – | 2.38e7 | 8.87e6 | inactive |
| CG43103 | DRSC05643 | 3.05e7 | 4.05e7 | – | 1.40e7 | 1.84e7 | inactive |
| Dcr-1 | DRSC15646 | 4.47e7 | 3.97e7 | – | 2.02e7 | 1.79e7 | inactive |
| CG9521 | DRSC20196 | 4.01e7 | 3.30e7 | – | 2.06e7 | 1.65e7 | inactive |
| Srp72 | DRSC15800 | 4.75e7 | 4.19e7 | – | 2.39e7 | 2.00e7 | inactive |
| CG4820 | DRSC15654 | 3.27e7 | 2.48e7 | – | 1.57e7 | 1.24e7 | inactive |
| CG7786 | DRSC07045 | 4.44e7 | 5.81e7 | – | 1.78e7 | 2.51e7 | inactive |
| CG10338 | DRSC02039 | 2.38e7 | 4.13e7 | – | 1.19e7 | 1.68e7 | inactive |
| CG9812 | DRSC04566 | 3.04e7 | 4.22e7 | – | 1.70e7 | 1.81e7 | inactive |
| Gr77a | DRSC11446 | 2.71e7 | 2.47e7 | – | 1.26e7 | 1.18e7 | inactive |
| coro | DRSC05007 | 3.99e7 | – | – | 2.02e7 | – | inactive |
| coro | DRSC21417 | 3.17e7 | 3.96e7 | – | 1.78e7 | 1.74e7 | inactive |
| Oga | DRSC15901 | 5.03e7 | 3.91e7 | – | 2.39e7 | 1.76e7 | inactive |
| BthD | DRSC19395 | 4.42e7 | 4.65e7 | – | 1.96e7 | 2.23e7 | inactive |
| CG32700 | DRSC17857 | 3.50e7 | 4.55e7 | – | 1.80e7 | 2.17e7 | inactive |
| CG32700 | DRSC17858 | 3.78e7 | 4.13e7 | – | 1.86e7 | 1.88e7 | inactive |
| LManIII | DRSC03221 | 2.58e7 | 4.18e7 | – | 1.20e7 | 1.78e7 | inactive |
| Diedel3 | DRSC19544 | 5.61e7 | 4.58e7 | – | 2.70e7 | 1.86e7 | inactive |
| Src42A | DRSC04865 | 3.40e7 | – | – | 1.71e7 | – | inactive |
| Src42A | DRSC04915 | 3.91e7 | 4.55e7 | – | 1.99e7 | 2.01e7 | inactive |
| CG33489 | DRSC10588 | 3.87e7 | 3.59e7 | – | 1.95e7 | 1.69e7 | inactive |
| ZIPIC | DRSC16349 | 3.53e7 | 5.02e7 | – | 1.86e7 | 2.41e7 | inactive |
| TwdlW | DRSC15540 | 3.16e7 | 5.59e7 | – | 1.54e7 | 7.07e7 | inactive |
| form3 | DRSC10195 | 3.40e7 | 3.54e7 | – | 1.46e7 | 1.58e7 | inactive |
| form3 | DRSC10297 | 4.77e7 | 3.03e7 | – | 2.84e7 | 1.46e7 | inactive |
| form3 | DRSC11024 | 3.08e7 | 3.78e7 | – | 1.55e7 | 1.66e7 | inactive |
| CG14538 (retired record) | DRSC02396 | 2.57e7 | 3.81e7 | – | 1.12e7 | 1.66e7 | inactive |
| eEF1alpha1 | DRSC07421 | 1.78e7 | 1.59e7 | – | 1.09e7 | 8.61e6 | inactive |
| Serinc | DRSC11296 | 4.28e7 | 4.45e7 | – | 1.87e7 | 2.69e7 | inactive |
| CG30049 | DRSC21345 | 4.80e7 | 3.04e7 | – | 2.18e7 | 1.33e7 | inactive |
| Fic | DRSC03247 | 4.66e7 | – | – | 2.25e7 | – | inactive |

The list goes on; the last 6 above are carried over.
| target gene | DRSC id | calcium entry signal, replicate 1 (fluorescence units) | calcium entry signal, replicate 2 (fluorescence units) | entry to resting ratio | resting calcium signal, replicate 1 (fluorescence units) | resting calcium signal, replicate 2 (fluorescence units) | Outcome |
| --- | --- | --- | --- | --- | --- | --- | --- |
| form3 | DRSC11024 | 3.08e7 | 3.78e7 | – | 1.55e7 | 1.66e7 | inactive |
| CG14538 (retired record) | DRSC02396 | 2.57e7 | 3.81e7 | – | 1.12e7 | 1.66e7 | inactive |
| eEF1alpha1 | DRSC07421 | 1.78e7 | 1.59e7 | – | 1.09e7 | 8.61e6 | inactive |
| Serinc | DRSC11296 | 4.28e7 | 4.45e7 | – | 1.87e7 | 2.69e7 | inactive |
| CG30049 | DRSC21345 | 4.80e7 | 3.04e7 | – | 2.18e7 | 1.33e7 | inactive |
| Fic | DRSC03247 | 4.66e7 | – | – | 2.25e7 | – | inactive |
| CG9733 | DRSC16549 | 2.73e7 | 3.79e7 | – | 1.51e7 | 1.74e7 | inactive |
| Corp | DRSC17771 | 2.60e7 | 2.79e7 | – | 1.26e7 | 1.33e7 | inactive |
| CG40583 (retired record) | DRSC20938 | 2.65e7 | 3.89e7 | – | 1.35e7 | 1.74e7 | inactive |
| CG31735 | DRSC01518 | 2.94e7 | 4.38e7 | – | 1.68e7 | 2.14e7 | inactive |
| CG4707 | DRSC04483 | 3.29e7 | – | – | 1.70e7 | – | inactive |
| CG8414 | DRSC07168 | 2.61e7 | 3.53e7 | – | 1.31e7 | 1.76e7 | inactive |
| CG15317 | DRSC18005 | 3.48e7 | 4.02e7 | – | 1.65e7 | 1.83e7 | inactive |
| qua | DRSC03598 | 5.27e7 | 3.51e7 | – | 2.32e7 | 1.59e7 | inactive |
| d4 | DRSC04881 | 2.91e7 | – | – | 1.36e7 | – | inactive |
| d4 | DRSC22674 | 3.80e7 | 3.33e7 | – | 1.89e7 | 1.58e7 | inactive |
| Acp98AB | DRSC21837 | 1.93e7 | 6.61e7 | – | 9.97e6 | 2.91e7 | inactive |
| CAH3 | DRSC17776 | 3.08e7 | 3.37e7 | – | 1.49e7 | 1.64e7 | inactive |
| CG7840 | DRSC03075 | 5.10e7 | – | – | 2.45e7 | – | inactive |
| CG17048 | DRSC06649 | 4.01e7 | 2.95e7 | – | 1.87e7 | 1.29e7 | inactive |
| mRpS28 | DRSC06939 | 6.37e7 | 6.39e7 | – | 2.74e7 | 2.79e7 | inactive |
| CG32599 | DRSC19433 | 3.34e7 | 3.34e7 | – | 1.53e7 | 1.61e7 | inactive |
| Tengl3 | DRSC22288 | 2.99e7 | 4.49e7 | – | 1.35e7 | 2.19e7 | inactive |
| CG13285 | DRSC09960 | 3.96e7 | 6.13e7 | – | 1.81e7 | 2.63e7 | inactive |
| Ttc1 | DRSC15016 | 3.44e7 | 7.70e7 | – | 1.67e7 | 6.23e7 | inactive |
| Ttc1 | DRSC22469 | 3.45e7 | 3.17e7 | – | 1.87e7 | 1.45e7 | inactive |
